Results are given in words; binding and its absence hold for the method and conditions named. In cells and extracts the contact can be indirect. Some entries that bind do so weakly or less than the wild type. Tags and fused reporters may be left off the sequences shown.
T1: GFP-GRASP-1 (rat) (UniProt Q9JHZ4)
T1 sequence: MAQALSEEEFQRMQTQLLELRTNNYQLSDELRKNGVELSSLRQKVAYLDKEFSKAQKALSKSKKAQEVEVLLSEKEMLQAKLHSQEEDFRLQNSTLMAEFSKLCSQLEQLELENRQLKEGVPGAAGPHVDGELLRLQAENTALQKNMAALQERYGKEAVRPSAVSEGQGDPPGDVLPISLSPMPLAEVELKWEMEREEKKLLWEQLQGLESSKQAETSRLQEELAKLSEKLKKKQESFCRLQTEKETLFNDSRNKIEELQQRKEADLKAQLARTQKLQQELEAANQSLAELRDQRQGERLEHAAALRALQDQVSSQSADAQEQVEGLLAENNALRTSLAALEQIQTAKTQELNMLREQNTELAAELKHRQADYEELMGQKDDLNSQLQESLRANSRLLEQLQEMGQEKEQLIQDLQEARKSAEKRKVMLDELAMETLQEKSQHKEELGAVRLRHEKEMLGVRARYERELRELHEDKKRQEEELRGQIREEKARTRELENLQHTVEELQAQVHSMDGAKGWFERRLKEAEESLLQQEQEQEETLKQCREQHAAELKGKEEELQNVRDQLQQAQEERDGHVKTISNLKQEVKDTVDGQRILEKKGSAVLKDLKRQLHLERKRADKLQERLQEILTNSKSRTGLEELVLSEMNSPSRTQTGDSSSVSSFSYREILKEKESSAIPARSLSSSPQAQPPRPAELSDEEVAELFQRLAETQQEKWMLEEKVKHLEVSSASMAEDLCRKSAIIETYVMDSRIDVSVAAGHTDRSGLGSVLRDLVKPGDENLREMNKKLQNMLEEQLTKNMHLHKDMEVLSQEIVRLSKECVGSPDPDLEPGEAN

T2: GFP-syntaxin 13 (UniProt G3V7P1)
T2 sequence: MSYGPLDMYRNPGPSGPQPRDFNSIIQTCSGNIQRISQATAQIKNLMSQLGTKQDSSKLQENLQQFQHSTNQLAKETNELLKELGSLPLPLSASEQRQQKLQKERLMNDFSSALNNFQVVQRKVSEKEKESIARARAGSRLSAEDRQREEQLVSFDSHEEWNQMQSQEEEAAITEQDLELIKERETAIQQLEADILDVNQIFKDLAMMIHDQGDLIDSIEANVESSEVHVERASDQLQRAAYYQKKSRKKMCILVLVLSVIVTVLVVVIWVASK


What was measured:
GFP-GRASP-1 (rat) = target: T1, GFP-GRASP-1 (rat); assay: co-IP; COS-7 cells cotransfected with a GFP-tagged and a myc-tagged construct; rabbit GFP antibody coated beads, 2 h at 4°C; 20 mM Hepes pH 7.4, 200 mM NaCl, 1% NP-40; anti-myc blot
GFP-syntaxin 13 = target: T2, GFP-syntaxin 13; assay: as above

binding (GFP-GRASP-1 (rat)) | binding (GFP-syntaxin 13) | Binder
binds |  | myc-syntaxin 13 (protein, UniProt G3V7P1 1-274) MSYGPLDMYRNPGPSGPQPRDFNSIIQTCSGNIQRISQATAQIKNLMSQLGTKQDSSKLQENLQQFQHSTNQLAKETNELLKELGSLPLPLSASEQRQQKLQKERLMNDFSSALNNFQVVQRKVSEKEKESIARARAGSRLSAEDRQREEQLVSFDSHEEWNQMQSQEEEAAITEQDLELIKERETAIQQLEADILDVNQIFKDLAMMIHDQGDLIDSIEANVESSEVHVERASDQLQRAAYYQKKSRKKMCILVLVLSVIVTVLVVVIWVASK
 | binds | myc-GRASP-1(695–837) (domain or fragment, UniProt Q9JHZ4-1 695-837) RPAELSDEEVAELFQRLAETQQEKWMLEEKVKHLEVSSASMAEDLCRKSAIIETYVMDSRIDVSVAAGHTDRSGLGSVLRDLVKPGDENLREMNKKLQNMLEEQLTKNMHLHKDMEVLSQEIVRLSKECVGSPDPDLEPGEAN
 | binds | myc-GRASP-1, full length (1-837) (protein, UniProt Q9JHZ4-1 1-837) MAQALSEEEFQRMQTQLLELRTNNYQLSDELRKNGVELSSLRQKVAYLDKEFSKAQKALSKSKKAQEVEVLLSEKEMLQAKLHSQEEDFRLQNSTLMAEFSKLCSQLEQLELENRQLKEGVPGAAGPHVDGELLRLQAENTALQKNMAALQERYGKEAVRPSAVSEGQGDPPGDVLPISLSPMPLAEVELKWEMEREEKKLLWEQLQGLESSKQAETSRLQEELAKLSEKLKKKQESFCRLQTEKETLFNDSRNKIEELQQRKEADLKAQLARTQKLQQELEAANQSLAELRDQRQGERLEHAAALRALQDQVSSQSADAQEQVEGLLAENNALRTSLAALEQIQTAKTQELNMLREQNTELAAELKHRQADYEELMGQKDDLNSQLQESLRANSRLLEQLQEMGQEKEQLIQDLQEARKSAEKRKVMLDELAMETLQEKSQHKEELGAVRLRHEKEMLGVRARYERELRELHEDKKRQEEELRGQIREEKARTRELENLQHTVEELQAQVHSMDGAKGWFERRLKEAEESLLQQEQEQEETLKQCREQHAAELKGKEEELQNVRDQLQQAQEERDGHVKTISNLKQEVKDTVDGQRILEKKGSAVLKDLKRQLHLERKRADKLQERLQEILTNSKSRTGLEELVLSEMNSPSRTQTGDSSSVSSFSYREILKEKESSAIPARSLSSSPQAQPPRPAELSDEEVAELFQRLAETQQEKWMLEEKVKHLEVSSASMAEDLCRKSAIIETYVMDSRIDVSVAAGHTDRSGLGSVLRDLVKPGDENLREMNKKLQNMLEEQLTKNMHLHKDMEVLSQEIVRLSKECVGSPDPDLEPGEAN
